In the supplement of paper PMC10735217:
Where a name gives a salt, the structure may show the parent alone. Some of the results follow. Repeats in this data set agree poorly, so a single value says little.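 Human kidney-derived cells stably carry a construct in which eight TEAD-binding elements drive luciferase, measured by luminescence in a drug-repurposing library screen. A hit is any compound whose signal exceeds the plate mean by more than five robust Z scores.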

System: HEK293A TEAD-LUC reporter
Assay: TEAD-luciferase reporter activity (YAP activation), robust Z score vs plate; higher = stronger YAP/TEAD activation
Details: 24 h

| SMILES | TEAD-luciferase reporter activity (compound concentration: 200 nM) | TEAD-luciferase reporter activity (compound concentration: 2 uM) | TEAD-luciferase reporter activity (compound concentration: 10 uM) |
| --- | --- | --- | --- |
| Cc1ncc(CO)c(CO)c1O.O=C1CC[C@@H](C(=O)O)N1 [Pyridoxine pyrolate] | inactive: -1.29 | inactive: -0.772 | inactive: -1.42 |
| Cc1cc2cc(Oc3ccnc(Nc4cccc(CS(=O)(=O)NCCN(C)C)c4)n3)ccc2[nH]1 [Sulfatinib] | inactive: 2.65 | inactive: -1.16 | inactive: -0.899 |
| COc1ccc(CC(=O)N2CCCC3(Cc4ccccc4CN3C(=O)CN)C2)cc1 (centres undefined) | inactive: 4.24 |  | inactive: 0.536 |
| CCCCCCCCCCCCCCCCCCO | inactive: 0.217 | inactive: -0.193 | inactive: 0.304 |
| COc1ccc(/C(=C/F)CN)cc1OC | inactive: -0.651 | inactive: -0.691 | inactive: 1.45 |
| O=C(Cn1ccnc1[N+](=O)[O-])NCCO [Etanidazole] |  | inactive: 0.706 |  |
| O=C(Cn1ccnc1[N+](=O)[O-])NCCO | inactive: -0.965 |  | inactive: -0.295 |
| CNC(=O)c1ccc(Nc2ncc(C(F)(F)F)c(NCc3nccnc3N(C)S(C)(=O)=O)n2)cc1 [Defactinib hydrochloride] | inactive: -1.64 | inactive: -2.59 | inactive: -2.31 |
| O=C(O)C1=C(c2ccc3c(c2)OCO3)c2ccccc2S(=O)(=O)N1c1cc2c(cc1Cl)OCO2 | inactive: -0.627 | inactive: -0.875 | inactive: 1.41 |
| CC(C)(C)c1csc(COc2cccc(C(=O)Nc3cc(CCCS(=O)(=O)c4ccc(Cl)cc4)ccc3OCc3nn[nH]n3)c2)n1 | inactive: -0.811 | inactive: 0.085 | inactive: -0.647 |
| CC(C)(NC(=O)c1nc(Cl)c(N)nc1N)C(=O)NCCNCC(O)COc1cccc2ccccc12 (centres undefined) | inactive: -1.35 | inactive: -1.21 | inactive: -0.838 |
| Nc1nc2c([nH]1)c(=O)n(CC1CC1)c(=O)n2CC1CC1 [Cipamfylline] | inactive: -1.22 | inactive: 0.627 | inactive: 0.409 |
| CC(=O)c1ccc2c(c1)N(CCCN(C)C)c1ccccc1S2 | inactive: -0.38 | inactive: -0.381 | inactive: -0.153 |
| CCN(CC)CCOc1cccc(-c2cn3c(n2)sc2ccccc23)c1 | inactive: -1.27 | inactive: 0.723 | inactive: 3.82 |
| O=C(NC1CC1)C1CCCN(c2nc3ncccc3o2)C1 (centres undefined) | inactive: -1.61 |  | inactive: 0.283 |
| CCCN(CCC)C(=O)C(Cc1ccc(OCCCN2CCN(C)CC2)cc1)NC(=O)c1cccc(F)c1 (centres undefined) | inactive: 2.2 | inactive: -0.455 | inactive: 0.301 |
| CC(=O)Oc1ccccc1C(=O)Oc1ccccc1 [phenyl 2-(acetyloxy)benzoate] | inactive: -0.826 | inactive: -1.17 | inactive: 3.93 |
| CC1(c2ccccc2)OC(C(=O)O)=CC1=O (centres undefined) [Acifran] | inactive: -1.13 | inactive: 1.87 | inactive: 0.735 |
| C[C@]12C=CC(=O)C=C1CC[C@H]1[C@@H]3C[C@@H](O)[C@](O)(C(=O)CO)[C@@]3(C)C[C@H](O)[C@@]12F [triamcinolone, Allergan] | inactive: 1.05 | inactive: 1.29 | inactive: 1.03 |
| O=C(NCCN1CCCC1)c1cc(-c2ccc(CN3CCOCC3)cc2)nc2ccc(F)cc12 | inactive: -0.787 | inactive: -0.0373 | inactive: 2.2 |
| COc1ccccc1C(=O)NCCc1ccc(S(=O)(=O)NC(=O)NC2CCCC2)cc1 | inactive: -1.36 | inactive: -0.0823 | inactive: 0.0229 |
| Cc1nc([N+](=O)[O-])cn1-c1ccccc1 | inactive: -1.79 | inactive: -0.389 | inactive: -0.431 |
| CC(C)(C)N1CCN[C@@H](C(=O)N2CCN(C(=O)Nc3ccc(Cl)c(F)c3)CC2)C1 | inactive: -0.642 | inactive: 2.6 | inactive: 0.628 |
| CCc1cc(/C(C)=N/OCc2ccc(C3CCCCC3)c(C(F)(F)F)c2)ccc1CN1CC(C(=O)O)C1 [siponimod] |  | inactive: -1.16 |  |
| CCc1cc(/C(C)=N/OCc2ccc(C3CCCCC3)c(C(F)(F)F)c2)ccc1CN1CC(C(=O)O)C1 [BAF312 (Siponimod)] | inactive: -1.61 |  | inactive: 2.52 |
| O=C(O)CCC/C=C\C[C@H]1C(=O)C=C[C@@H]1/C=C/[C@@H](O)CCc1ccccc1 [17-phenyl trinor PGA2] | inactive: -0.636 | inactive: -2.38 | inactive: 4.19 |
| Oc1cc2c3c(c1)c1cc4c(cc1c[n+]3CC2)OCO4 [Lycobetaine chloride] | inactive: -1.29 | inactive: 0.752 | inactive: 1.3 |

| SMILES | TEAD-luciferase reporter activity (compound concentration: 200 nM) | TEAD-luciferase reporter activity (compound concentration: 2 uM) | TEAD-luciferase reporter activity (compound concentration: 10 uM) |
| --- | --- | --- | --- |
| CS(=O)(=O)NC(=O)C(c1ccc(OCc2ccc3ccccc3n2)cc1)C1CCCCCC1 (centres undefined) | inactive: -0.232 | inactive: -2.05 | inactive: -0.0176 |
| C[C@H](c1ccc(-c2ccccc2)c(F)c1)c1cc(/N=C(\N)N2CCOCC2)on1 | inactive: -0.854 | inactive: 1.97 | inactive: 1.34 |
| Cc1nn(C)cc1CN1CCC(c2ccc(C(=O)Nc3ccccc3N)cc2)CC1 | active: 7.5 | inactive: 2.42 | active: 10.1 |
| CC(C)(C)S(=O)(=O)N[C@H]1CC[C@H](C(=O)Nc2ccc(C(F)(F)F)cn2)CC1 [velneperit] | inactive: -0.858 | inactive: -1.43 | inactive: 1.16 |
| Cc1c(C(=O)N(C)C2CCCCC2)sc2nc3ccc(N)cc3n12 | inactive: -1.31 | inactive: 2.03 | inactive: -0.0864 |
| CC(=O)c1cccc(NC(=O)c2nnn[nH]2)c1O | inactive: 0.805 | inactive: -1.86 | inactive: -1.59 |
| CCCN(CCc1cccs1)[C@H]1CCc2c(O)cccc2C1 | inactive: -0.901 | inactive: -1.18 | inactive: -0.123 |
| c1csc(Cc2ccccc2OCC2CNCCO2)c1 (centres undefined) [Teniloxazine maleate] | inactive: -0.0268 | inactive: 3.89 | inactive: 1.78 |
| CC[C@H](C)[C@@H]1NC(=O)[C@H](Cc2ccccc2)NC(=O)[C@@H](N)CSSC[C@@H](C(=O)N2CCC[C@H]2C(=O)N[C@@H](CCCNC(C)C)C(=O)NCC(N)=O)NC(=O)[C@H](CC(N)=O)NC(=O)[C@H](CCCC(N)=O)NC1=O [selepressin] | inactive: 0.175 | inactive: -0.372 | inactive: 0.377 |
| c1ccc2c(c1)CC[C@H](CNCCCNC1=NCCCN1)O2 | inactive: -1.59 | inactive: -1.37 | inactive: 2.83 |
| CCCc1ccc(NS(=O)(=O)Cc2ccccc2)c(=O)n1CC(=O)NCc1ccc(C)nc1 | inactive: -1.38 | inactive: -1.2 | inactive: -0.717 |
| CNC(=O)c1ccc(N2C(=S)N(c3cnc(C#N)c(C(F)(F)F)c3)C(=O)C23CCC3)cc1F [Apalutamide] | inactive: -1.47 | inactive: -1.03 | inactive: 0.196 |
| Nc1ncnc2nc(-c3ccc(N4CCOCC4)nc3)cc(-c3cccc(Br)c3)c12 |  | inactive: -0.879 |  |
| Nc1ncnc2nc(-c3ccc(N4CCOCC4)nc3)cc(-c3cccc(Br)c3)c12 [Adenosine Kinase Inhibitor] | inactive: -0.184 |  | inactive: 1.48 |
| CC1(C)O[C@@H]2C[C@H]3[C@@H]4CCC5=CC(=O)C=C[C@]5(C)[C@H]4[C@@H](O)C[C@]3(C)[C@]2(C(=O)CO)O1 [desonide HydroGel] |  | inactive: 0.122 |  |
| CC1(C)O[C@@H]2C[C@H]3[C@@H]4CCC5=CC(=O)C=C[C@]5(C)[C@H]4[C@@H](O)C[C@]3(C)[C@]2(C(=O)CO)O1 [desonide HydroGel, SkinMedica] | inactive: -1.15 |  | inactive: 0.947 |
| COc1ccc([C@H](Cc2ccncc2)c2ccccc2)cc1OC1CCCC1 | inactive: -0.492 | inactive: 0.0581 | inactive: -0.707 |
| CN(C)CC(O)CN(C)C | inactive: 2.87 | inactive: -0.319 | inactive: 0.0832 |
| CN(C)c1ccc2nc3ccc(=[N+](C)C)cc-3sc2c1 [Methylene Blue trihydrate] | inactive: 0.0961 |  | inactive: -1.04 |
| CN(C)c1ccc2nc3ccc(=[N+](C)C)cc-3sc2c1 [methylthioninium chloride] |  | inactive: -0.583 |  |
| COC(=O)C1=C(C)NC(C)=C(C(=O)OC(C)C)C1c1cccc2nonc12 (centres undefined) [isradipine] | inactive: -0.41 | inactive: -0.893 | inactive: -0.419 |
| CCN(CC)CCNC(=O)c1cc(S(C)(=O)=O)ccc1OC [tiapride] | inactive: -2.7 | inactive: -1.27 | inactive: 2.74 |
| C1CC1CN1CCN(CC2CC2)CC1 | inactive: 1.33 | inactive: 0.221 | inactive: 0.416 |
| OC(COc1ccc(F)cc1)CN1CCN(c2nc3ccc(Cl)cc3s2)CC1 (centres undefined) | inactive: -1.07 | inactive: -0.331 | inactive: -0.0927 |
| CC[C@H](C)[C@H]1O[C@]2(CC[C@@H]1C)C[C@@H]1C[C@@H](C/C=C(\C)[C@@H](O[C@H]3C[C@H](OC)[C@@H](O[C@H]4C[C@H](OC)[C@@H](O)[C@H](C)O4)[C@H](C)O3)[C@@H](C)/C=C/C=C3\CO[C@@H]4[C@H](O)C(C)=C[C@@H](C(=O)O1)[C@]34O)O2 [ivermectin 1%, Galderma] | inactive: -0.416 |  | inactive: 0.573 |
| CC[C@H](C)[C@H]1O[C@]2(CC[C@@H]1C)C[C@@H]1C[C@@H](C/C=C(\C)[C@@H](O[C@H]3C[C@H](OC)[C@@H](O[C@H]4C[C@H](OC)[C@@H](O)[C@H](C)O4)[C@H](C)O3)[C@@H](C)/C=C/C=C3\CO[C@@H]4[C@H](O)C(C)=C[C@@H](C(=O)O1)[C@]34O)O2 [ivermectin 1%] |  | inactive: 2.66 |  |

Only TEAD-luciferase reporter activity (compound concentration: 2 uM) and TEAD-luciferase reporter activity (compound concentration: 10 uM) (two entries from above):
SMILES | TEAD-luciferase reporter activity (compound concentration: 2 uM) | TEAD-luciferase reporter activity (compound concentration: 10 uM)
COc1ccc(/C(=C/F)CN)cc1OC | inactive: -0.691 | inactive: 1.45
Cc1nc([N+](=O)[O-])cn1-c1ccccc1 | inactive: -0.389 | inactive: -0.431
